Source: the supplement of paper PMC10849652
Some of the results follow.

Amino acid sequences for entries named in this document (tags omitted). A change or cut given only in a name is not applied to a line headed by its entry.
UniProt Q9BY77: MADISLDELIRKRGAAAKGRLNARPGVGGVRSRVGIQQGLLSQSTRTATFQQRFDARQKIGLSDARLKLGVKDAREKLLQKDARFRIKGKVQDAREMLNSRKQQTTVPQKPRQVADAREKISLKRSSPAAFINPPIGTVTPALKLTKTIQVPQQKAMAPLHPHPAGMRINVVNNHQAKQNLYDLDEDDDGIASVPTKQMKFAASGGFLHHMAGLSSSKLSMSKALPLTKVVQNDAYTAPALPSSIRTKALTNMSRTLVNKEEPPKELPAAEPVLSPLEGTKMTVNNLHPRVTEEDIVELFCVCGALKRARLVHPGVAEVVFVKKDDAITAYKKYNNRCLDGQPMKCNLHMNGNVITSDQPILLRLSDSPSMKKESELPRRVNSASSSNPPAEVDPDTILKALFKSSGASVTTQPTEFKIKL
UniProt O15305: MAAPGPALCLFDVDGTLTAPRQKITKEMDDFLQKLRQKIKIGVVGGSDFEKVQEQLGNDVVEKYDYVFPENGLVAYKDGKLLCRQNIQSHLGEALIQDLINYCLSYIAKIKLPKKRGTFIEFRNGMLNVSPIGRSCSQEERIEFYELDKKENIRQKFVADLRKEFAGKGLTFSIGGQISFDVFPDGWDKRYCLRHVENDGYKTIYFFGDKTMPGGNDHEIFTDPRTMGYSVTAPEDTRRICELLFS
UniProt Q9NVS9: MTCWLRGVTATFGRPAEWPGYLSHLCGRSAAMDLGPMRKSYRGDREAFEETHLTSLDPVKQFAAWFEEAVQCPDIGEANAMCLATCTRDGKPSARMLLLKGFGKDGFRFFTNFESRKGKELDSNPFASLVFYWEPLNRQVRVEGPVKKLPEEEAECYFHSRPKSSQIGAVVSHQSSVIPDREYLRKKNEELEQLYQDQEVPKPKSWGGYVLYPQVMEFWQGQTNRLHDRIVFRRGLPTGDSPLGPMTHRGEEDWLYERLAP
UniProt Q9UIW2: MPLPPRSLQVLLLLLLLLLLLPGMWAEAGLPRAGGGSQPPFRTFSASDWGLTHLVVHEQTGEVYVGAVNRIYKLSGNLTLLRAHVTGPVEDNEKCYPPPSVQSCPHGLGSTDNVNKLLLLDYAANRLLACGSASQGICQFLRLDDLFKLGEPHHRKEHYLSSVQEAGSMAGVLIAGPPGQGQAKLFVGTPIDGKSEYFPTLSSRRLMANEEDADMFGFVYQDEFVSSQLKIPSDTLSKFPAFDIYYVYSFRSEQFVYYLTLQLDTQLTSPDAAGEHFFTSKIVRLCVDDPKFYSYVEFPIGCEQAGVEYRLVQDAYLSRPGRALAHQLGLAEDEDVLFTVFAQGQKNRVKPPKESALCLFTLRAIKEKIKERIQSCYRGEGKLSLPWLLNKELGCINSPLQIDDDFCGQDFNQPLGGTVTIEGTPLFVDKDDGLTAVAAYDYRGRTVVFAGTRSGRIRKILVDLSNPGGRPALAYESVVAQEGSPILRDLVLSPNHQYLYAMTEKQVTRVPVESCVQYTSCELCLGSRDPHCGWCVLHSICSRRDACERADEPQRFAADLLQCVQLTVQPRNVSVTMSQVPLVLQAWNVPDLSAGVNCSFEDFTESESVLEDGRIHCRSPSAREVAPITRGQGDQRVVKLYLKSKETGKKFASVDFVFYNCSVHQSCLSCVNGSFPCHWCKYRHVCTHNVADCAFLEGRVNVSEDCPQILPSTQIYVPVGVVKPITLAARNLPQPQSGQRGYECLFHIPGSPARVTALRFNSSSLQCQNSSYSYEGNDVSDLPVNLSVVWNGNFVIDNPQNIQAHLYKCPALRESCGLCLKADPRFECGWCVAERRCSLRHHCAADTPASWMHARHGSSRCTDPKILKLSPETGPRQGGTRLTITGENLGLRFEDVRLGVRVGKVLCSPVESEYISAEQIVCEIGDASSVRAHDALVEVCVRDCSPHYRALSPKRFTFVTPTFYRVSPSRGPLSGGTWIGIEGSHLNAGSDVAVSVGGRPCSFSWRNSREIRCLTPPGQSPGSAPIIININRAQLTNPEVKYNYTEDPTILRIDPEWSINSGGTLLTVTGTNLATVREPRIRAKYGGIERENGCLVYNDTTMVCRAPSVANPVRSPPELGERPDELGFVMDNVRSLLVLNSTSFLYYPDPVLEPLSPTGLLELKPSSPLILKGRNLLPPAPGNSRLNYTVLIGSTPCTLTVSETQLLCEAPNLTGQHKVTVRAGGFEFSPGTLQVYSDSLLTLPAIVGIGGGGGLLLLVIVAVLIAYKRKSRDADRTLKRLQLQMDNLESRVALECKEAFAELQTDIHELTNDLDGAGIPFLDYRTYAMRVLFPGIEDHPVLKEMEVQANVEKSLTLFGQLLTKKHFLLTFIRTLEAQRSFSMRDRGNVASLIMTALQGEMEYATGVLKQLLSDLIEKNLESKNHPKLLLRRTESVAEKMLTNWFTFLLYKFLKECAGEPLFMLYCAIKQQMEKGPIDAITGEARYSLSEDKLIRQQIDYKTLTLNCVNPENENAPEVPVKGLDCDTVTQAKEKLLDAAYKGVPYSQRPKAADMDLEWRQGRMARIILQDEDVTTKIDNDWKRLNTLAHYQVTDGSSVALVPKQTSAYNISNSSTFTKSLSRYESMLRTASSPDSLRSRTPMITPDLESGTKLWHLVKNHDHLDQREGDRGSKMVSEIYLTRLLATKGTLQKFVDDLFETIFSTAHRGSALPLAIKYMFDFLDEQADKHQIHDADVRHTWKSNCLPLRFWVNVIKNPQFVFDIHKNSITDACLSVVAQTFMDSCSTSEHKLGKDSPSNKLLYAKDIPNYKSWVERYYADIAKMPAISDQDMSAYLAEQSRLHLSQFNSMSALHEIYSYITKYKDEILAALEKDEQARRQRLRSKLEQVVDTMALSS
UniProt O95707: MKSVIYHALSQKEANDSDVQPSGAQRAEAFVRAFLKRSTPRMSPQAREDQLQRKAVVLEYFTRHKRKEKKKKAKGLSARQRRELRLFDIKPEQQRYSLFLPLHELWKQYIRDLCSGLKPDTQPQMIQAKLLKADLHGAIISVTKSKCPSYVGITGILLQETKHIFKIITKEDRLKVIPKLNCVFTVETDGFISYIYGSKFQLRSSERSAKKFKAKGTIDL
UniProt Q9HAB8: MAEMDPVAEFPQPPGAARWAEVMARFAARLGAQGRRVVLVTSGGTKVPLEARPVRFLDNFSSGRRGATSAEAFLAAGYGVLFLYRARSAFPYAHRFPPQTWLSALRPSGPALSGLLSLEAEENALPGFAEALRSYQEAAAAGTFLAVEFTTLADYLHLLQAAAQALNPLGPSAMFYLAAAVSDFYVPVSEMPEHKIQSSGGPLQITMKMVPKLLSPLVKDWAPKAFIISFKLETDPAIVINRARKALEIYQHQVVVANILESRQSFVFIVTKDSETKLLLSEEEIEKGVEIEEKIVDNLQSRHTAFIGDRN
UniProt P30405: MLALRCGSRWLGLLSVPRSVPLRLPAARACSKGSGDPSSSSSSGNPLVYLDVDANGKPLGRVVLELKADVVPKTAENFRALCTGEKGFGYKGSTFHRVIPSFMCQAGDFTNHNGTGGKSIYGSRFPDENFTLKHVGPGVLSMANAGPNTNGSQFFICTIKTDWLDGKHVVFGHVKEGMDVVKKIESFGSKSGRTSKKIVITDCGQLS
UniProt P49005: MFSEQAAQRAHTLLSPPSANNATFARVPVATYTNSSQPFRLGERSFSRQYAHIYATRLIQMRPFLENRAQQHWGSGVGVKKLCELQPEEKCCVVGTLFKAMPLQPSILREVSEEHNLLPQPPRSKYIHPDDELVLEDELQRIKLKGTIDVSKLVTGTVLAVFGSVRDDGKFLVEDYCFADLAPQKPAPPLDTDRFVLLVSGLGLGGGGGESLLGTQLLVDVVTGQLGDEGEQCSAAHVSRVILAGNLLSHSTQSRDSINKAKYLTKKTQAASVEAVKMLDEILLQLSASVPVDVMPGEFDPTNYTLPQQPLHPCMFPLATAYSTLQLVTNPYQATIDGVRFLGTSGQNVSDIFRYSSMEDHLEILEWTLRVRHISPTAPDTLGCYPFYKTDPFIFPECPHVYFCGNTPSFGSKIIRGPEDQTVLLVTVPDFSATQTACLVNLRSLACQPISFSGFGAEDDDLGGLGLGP
UniProt P53350, whole entry, looked up: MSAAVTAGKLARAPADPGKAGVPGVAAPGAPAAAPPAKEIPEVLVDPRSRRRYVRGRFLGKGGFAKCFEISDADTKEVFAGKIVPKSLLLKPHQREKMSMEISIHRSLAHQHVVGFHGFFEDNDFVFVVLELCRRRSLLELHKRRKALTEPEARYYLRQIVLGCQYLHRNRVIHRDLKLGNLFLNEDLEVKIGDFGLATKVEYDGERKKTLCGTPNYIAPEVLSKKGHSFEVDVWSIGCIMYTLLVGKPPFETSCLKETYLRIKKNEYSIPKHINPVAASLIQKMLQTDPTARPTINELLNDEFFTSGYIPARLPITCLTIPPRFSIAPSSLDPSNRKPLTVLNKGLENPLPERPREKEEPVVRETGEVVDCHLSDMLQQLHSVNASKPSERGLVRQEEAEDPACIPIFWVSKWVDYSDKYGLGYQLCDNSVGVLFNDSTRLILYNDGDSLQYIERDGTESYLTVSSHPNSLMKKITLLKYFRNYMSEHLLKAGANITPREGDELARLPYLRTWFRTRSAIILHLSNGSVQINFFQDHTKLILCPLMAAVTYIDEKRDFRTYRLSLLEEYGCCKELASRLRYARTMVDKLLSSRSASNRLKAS
UniProt O94903: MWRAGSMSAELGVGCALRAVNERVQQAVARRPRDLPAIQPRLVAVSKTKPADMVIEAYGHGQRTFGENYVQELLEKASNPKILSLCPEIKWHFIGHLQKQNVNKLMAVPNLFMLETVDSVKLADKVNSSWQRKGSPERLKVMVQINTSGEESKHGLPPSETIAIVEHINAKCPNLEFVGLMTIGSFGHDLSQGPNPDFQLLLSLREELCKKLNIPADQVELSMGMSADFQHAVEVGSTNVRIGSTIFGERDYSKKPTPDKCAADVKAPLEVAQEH
UniProt Q13356: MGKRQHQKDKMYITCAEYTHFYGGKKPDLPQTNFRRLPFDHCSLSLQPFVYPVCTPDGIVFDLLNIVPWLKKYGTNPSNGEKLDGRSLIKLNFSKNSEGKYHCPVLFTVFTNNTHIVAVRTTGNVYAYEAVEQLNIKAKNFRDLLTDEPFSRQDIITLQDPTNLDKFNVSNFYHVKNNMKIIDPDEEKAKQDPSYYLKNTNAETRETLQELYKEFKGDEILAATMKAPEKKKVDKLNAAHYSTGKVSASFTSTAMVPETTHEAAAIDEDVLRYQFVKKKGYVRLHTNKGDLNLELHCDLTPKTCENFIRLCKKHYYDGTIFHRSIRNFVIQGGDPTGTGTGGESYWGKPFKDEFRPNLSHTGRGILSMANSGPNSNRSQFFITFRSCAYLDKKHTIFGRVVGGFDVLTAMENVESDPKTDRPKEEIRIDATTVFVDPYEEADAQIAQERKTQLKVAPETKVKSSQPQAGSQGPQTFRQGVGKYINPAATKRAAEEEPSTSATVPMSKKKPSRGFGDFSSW
UniProt Q99575: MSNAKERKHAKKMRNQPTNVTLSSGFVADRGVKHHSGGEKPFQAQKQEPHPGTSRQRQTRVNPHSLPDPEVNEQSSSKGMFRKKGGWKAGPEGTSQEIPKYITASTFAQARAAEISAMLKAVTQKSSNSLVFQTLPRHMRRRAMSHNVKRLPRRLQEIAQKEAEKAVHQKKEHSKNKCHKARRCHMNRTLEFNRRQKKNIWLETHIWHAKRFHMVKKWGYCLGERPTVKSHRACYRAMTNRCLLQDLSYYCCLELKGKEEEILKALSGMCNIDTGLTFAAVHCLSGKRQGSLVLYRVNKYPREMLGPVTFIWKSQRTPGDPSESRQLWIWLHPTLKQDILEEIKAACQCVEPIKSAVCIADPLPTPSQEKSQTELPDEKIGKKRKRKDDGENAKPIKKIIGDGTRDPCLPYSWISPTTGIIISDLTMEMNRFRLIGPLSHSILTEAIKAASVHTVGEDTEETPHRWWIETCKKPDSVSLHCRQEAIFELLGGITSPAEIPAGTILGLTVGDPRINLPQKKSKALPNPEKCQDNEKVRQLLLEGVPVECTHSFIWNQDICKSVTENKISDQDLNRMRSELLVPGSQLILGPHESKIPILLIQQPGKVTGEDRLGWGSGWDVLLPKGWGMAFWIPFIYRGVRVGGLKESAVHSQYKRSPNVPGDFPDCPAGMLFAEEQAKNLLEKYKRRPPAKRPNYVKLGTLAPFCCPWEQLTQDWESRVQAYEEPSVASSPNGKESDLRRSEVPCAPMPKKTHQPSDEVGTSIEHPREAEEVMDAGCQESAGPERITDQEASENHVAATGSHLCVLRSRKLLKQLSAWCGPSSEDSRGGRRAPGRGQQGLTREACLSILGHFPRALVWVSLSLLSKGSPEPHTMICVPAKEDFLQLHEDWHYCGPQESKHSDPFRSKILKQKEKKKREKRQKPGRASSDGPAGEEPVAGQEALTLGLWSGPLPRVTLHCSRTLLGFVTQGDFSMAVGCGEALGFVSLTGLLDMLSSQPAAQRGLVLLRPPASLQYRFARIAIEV

Tests used:
Experiment in all cases: log2 fold change, soluble protein after heating vs DMSO (PISA); higher = thermal stabilisation; K562 cells, 10 uM, 30 min; active = over 0.2 and 3.5 SD of the protein, either way, in both replicates (recomputed)
bafetinib = compound: Cc1ccc(NC(=O)c2ccc(CN3CC[C@H](N(C)C)C3)c(C(F)(F)F)c2)cc1Nc1nccc(-c2cncnc2)n1 [bafetinib]
Outline: (§1)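 Quantification of soluble protein used TMTpro 16plex LC-MS/MS, with channel sums equalised. Samples were the supernatant after 21,000xg for 90 min of pooled aliquots from K562 cells (2×10^6 cells/mL) treated with 10 μM compound for 30 min, heated for 3 min over 48°C-58°C, and extracted in PBS with 0.5% NP-40 at 4°C. Values, from duplicates, describe thermal stability against control samples on a log2 fold-change scale.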

[1] = compound: Cc1cccc(CC(=O)N2CCc3c2ccc(-c2cn(C)c4ncnc(N)c24)c3F)n1
Outline: as §1

nilotinib = compound: Cc1cn(-c2cc(NC(=O)c3ccc(C)c(Nc4nccc(-c5cccnc5)n4)c3)cc(C(F)(F)F)c2)cn1 [nilotinib]
Outline: as §1

[2] = compound: Cc1nc(Nc2n[nH]c3c2CN(C(=O)N[C@H](CN(C)C)c2ccccc2)C3(C)C)c2sccc2n1
Outline: as §1

dasatinib = compound: Cc1nc(Nc2ncc(C(=O)Nc3c(C)cccc3Cl)s2)cc(N2CCN(CCO)CC2)n1 [dasatinib]
Outline: as §1

[3] = compound: Cc1ncc(-c2ccnc(Nc3ccc(S(C)(=O)=O)cc3)n2)n1C(C)C
Outline: as §1

[4] = compound: Cn1cc(-c2ccc3c(c2)CCN3C(=O)Cc2cccc(C(F)(F)F)c2)c2c(N)ncnc21
Outline: as §1

[5] = compound: Cn1cc(-c2ccc3nnc(C(F)(F)c4ccc5ncccc5c4)n3n2)cn1
Outline: as §1

tipifarnib = compound: Cn1cncc1[C@@](N)(c1ccc(Cl)cc1)c1ccc2c(c1)c(-c1cccc(Cl)c1)cc(=O)n2C [tipifarnib]
Outline: as §1

mubritinib = compound: FC(F)(F)c1ccc(/C=C/c2nc(COc3ccc(CCCCn4ccnn4)cc3)co2)cc1 [mubritinib]
Outline: as §1

[6] = compound: NC(=O)Nc1cc(-c2cccc(F)c2)sc1C(=O)N[C@H]1CCCNC1
Outline: as §1

[7] = compound: NC(=O)c1cnc(N[C@@H]2CCCC[C@@H]2N)nc1Nc1cccc(-n2nccn2)c1
Outline: as §1

[8] = compound: NC1(c2ccc(-c3nc4ccn5c(=O)[nH]nc5c4cc3-c3ccccc3)cc2)CCC1
Outline: as §1

[9] = compound: NCC(=O)Nc1ccc(-n2nc(C(F)(F)F)cc2-c2ccc3c(ccc4ccccc43)c2)cc1
Outline: as §1

entinostat = compound: Nc1ccccc1NC(=O)c1ccc(CNC(=O)OCc2cccnc2)cc1 [entinostat]
Outline: as §1

vorinostat = compound: O=C(CCCCCCC(=O)Nc1ccccc1)NO [vorinostat]
Outline: as §1

citarinostat = compound: O=C(CCCCCCNC(=O)c1cnc(N(c2ccccc2)c2ccccc2Cl)nc1)NO [citarinostat]
Outline: as §1

silmitasertib = compound: O=C(O)c1ccc2c(c1)nc(Nc1cccc(Cl)c1)c1ccncc12 [silmitasertib]
Outline: as §1

[10] = compound: O=C1NC(=O)C(c2cnc3ccccn23)=C1c1cn2c3c(cc(F)cc13)CN(C(=O)N1CCCCC1)CC2
Outline: as §1

[11] = compound: c1cc(OCCN2CCCCC2)cc(-c2n[nH]c3ccc(-c4nnc[nH]4)cc23)c1
Outline: as §1

Target	log2 fold change (bafetinib)	log2 fold change [1]	log2 fold change (nilotinib)	log2 fold change [2]	log2 fold change (dasatinib)	log2 fold change [3]	log2 fold change [4]	log2 fold change [5]	log2 fold change (tipifarnib)	log2 fold change (mubritinib)	log2 fold change [6]	log2 fold change [7]	log2 fold change [8]	log2 fold change [9]	log2 fold change (entinostat)	log2 fold change (vorinostat)	log2 fold change (citarinostat)	log2 fold change (silmitasertib)	log2 fold change [10]	log2 fold change [11]
POLDIP3 (UniProt Q9BY77)	inactive: 0.03	inactive: -0.037	inactive: 0.014	inactive: -0.031	inactive: 0.109	inactive: 0.059	inactive: -0.108	inactive: -0.121	inactive: 0.043	inactive: -0.019	inactive: 0.023	inactive: 0.038	inactive: -0.014	inactive: 0	inactive: -0.038	inactive: 0.033	inactive: 0.002	inactive: 0.039	inactive: 0.21	inactive: -0.004
PMM2 (UniProt O15305)	inactive: -0.098	inactive: 0.003	active: -0.291	inactive: -0.054	inactive: -0.018	inactive: -0.015	inactive: 0.035	inactive: 0.013	inactive: 0.018	inactive: 0.028	inactive: 0.022	inactive: 0.01	inactive: 0.016	inactive: -0.024	inactive: -0.004	inactive: 0.007	inactive: 0.024	inactive: -0.001	inactive: -0.05	inactive: -0.02
PLOD1 isoform 2 (UniProt Q02809)	inactive: 0.052	inactive: 0.033	inactive: 0.015	inactive: 0.072	inactive: 0.05	inactive: -0.044	inactive: -0.113	inactive: -0.03	inactive: 0.121	inactive: -0.11	inactive: -0.004	inactive: 0.006	inactive: -0.018	inactive: 0.058	inactive: 0.003	inactive: -0.03	inactive: -0.008	inactive: 0.059	inactive: 0.047	inactive: -0.104
POLR2H (UniProt P52434)	inactive: -0.02	inactive: 0.008	inactive: -0.021	inactive: 0.007	inactive: -0.054	inactive: 0.123	inactive: -0.033	inactive: -0.015	inactive: 0.043	inactive: 0.045	inactive: -0.018	inactive: 0.001	inactive: -0.141	inactive: -0.108	inactive: 0.012	inactive: -0.099	inactive: 0.025	inactive: 0.045	inactive: -0.062	inactive: -0.101
POLR2G (UniProt P62487)	inactive: -0.048	inactive: -0.038	inactive: 0.012	inactive: 0.188	inactive: 0.054	inactive: 0.202	inactive: 0.009	inactive: 0.002	inactive: 0	inactive: 0.065	inactive: 0.061	inactive: 0.153	inactive: -0.008	inactive: 0.003	inactive: -0.034	inactive: -0.148	inactive: -0.009	inactive: 0.004	inactive: 0.009	inactive: -0.037
PNPO (UniProt Q9NVS9)	inactive: -0.063	inactive: 0.048	inactive: -0.015	inactive: 0.021	inactive: -0.038	inactive: 0.064	inactive: 0.037	inactive: -0.041	inactive: 0.009	inactive: 0.009	inactive: -0.018	inactive: -0.048	inactive: 0.021	inactive: 0.06	inactive: -0.013	inactive: -0.022	inactive: 0.024	inactive: -0.071	inactive: -0.094	inactive: -0.034
PLXNA1 (UniProt Q9UIW2)	inactive: 0.045	inactive: -0.012	inactive: -0.055	inactive: 0.027	inactive: 0.019	inactive: -0.039	inactive: 0.066	inactive: 0.014	inactive: 0.025	inactive: 0.03	inactive: -0.102	inactive: 0.007	inactive: -0.041	inactive: -0.055	inactive: -0.018	inactive: -0.027	inactive: -0.007	inactive: -0.041	inactive: -0.024	inactive: -0.059
POP4 (UniProt O95707)	inactive: 0.08	inactive: -0.066	inactive: -0.005	inactive: 0.015	inactive: 0.02	inactive: 0.003	inactive: 0.027	inactive: -0.083	inactive: -0.015	inactive: 0.038	inactive: -0.083	inactive: -0.065	inactive: -0.004	inactive: -0.057	inactive: -0.009	inactive: -0.034	inactive: 0.013	inactive: 0.018	inactive: -0.033	inactive: -0.165
PPCS (UniProt Q9HAB8)	inactive: -0.017	inactive: 0.011	inactive: 0.035	inactive: -0.072	inactive: -0.065	inactive: -0.003	inactive: 0.019	inactive: 0.057	inactive: -0.001	inactive: 0.05	inactive: -0.038	inactive: -0.034	inactive: -0.06	inactive: -0.042	inactive: 0.012	inactive: -0.034	inactive: 0.021	inactive: -0.001	inactive: -0.086	inactive: -0.024
PPIF (UniProt P30405)	inactive: -0.087	inactive: 0.023	inactive: -0.033	inactive: 0.046	inactive: -0.041	inactive: -0.051	inactive: 0.036	inactive: 0.016	inactive: 0.005	inactive: 0.032	inactive: -0.023	inactive: -0.02	inactive: 0.012	inactive: -0.048	inactive: -0.004	inactive: 0.009	inactive: 0.032	inactive: -0.033	inactive: -0.173	inactive: -0.009
POLD2 (UniProt P49005)	inactive: -0.062	inactive: 0.059	inactive: -0.054	inactive: 0.008	inactive: -0.046	inactive: -0.067	inactive: 0.051	inactive: -0.028	inactive: -0.033	inactive: 0.011	inactive: 0.134	inactive: -0.068	inactive: -0.105	inactive: -0.036	inactive: 0.054	inactive: -0.092	inactive: 0.048	inactive: 0.022	inactive: -0.068	inactive: 0.031
PLK1 (UniProt P53350)	inactive: -0.048	inactive: 0.003	inactive: -0.062	active: -1.37	inactive: -0.125	inactive: 0.152	inactive: 0.006	inactive: -0.013	inactive: 0.019	inactive: 0.003	active: -0.399	inactive: 0.033	inactive: -0.024	inactive: 0.005	inactive: -0.005	inactive: 0.002	inactive: 0.019	inactive: -0.135	inactive: 0.032	inactive: -0.103
PLPBP (UniProt O94903)	inactive: 0.053	inactive: -0.08	inactive: 0.158	inactive: -0.228	inactive: -0.111	inactive: 0.003	inactive: -0.135	inactive: 0.004	inactive: 0.055	inactive: -0.034	inactive: -0.045	inactive: -0.114	inactive: -0.086	inactive: -0.055	inactive: 0.041	inactive: 0.032	inactive: -0.076	inactive: 0.045	inactive: 0.023	inactive: 0.1
PLRG1 (UniProt O43660)	inactive: 0.027	inactive: 0.002	inactive: 0.006	inactive: -0.03	inactive: 0.017	inactive: 0.04	inactive: -0.054	inactive: -0.096	inactive: 0.077	inactive: -0.017	inactive: 0.042	inactive: -0.016	inactive: -0.003	inactive: -0.007	inactive: -0.008	inactive: -0.039	inactive: -0.022	inactive: 0.028	inactive: 0.112	inactive: -0.094
PPIL2 (UniProt Q13356)	inactive: -0.008	inactive: 0.032	inactive: -0.056	inactive: -0.086	inactive: -0.127	inactive: 0.068	inactive: 0.03	inactive: 0.046	inactive: -0.142	inactive: 0.011	inactive: -0.069	inactive: -0.058	inactive: -0.077	inactive: -0.1	inactive: 0.059	inactive: 0.063	inactive: 0.065	inactive: 0.083	inactive: -0.07	inactive: -0.014
POP1 (UniProt Q99575)	inactive: 0.019	inactive: 0.002	inactive: 0.074	inactive: -0.018	inactive: 0.039	inactive: -0.037	inactive: 0.042	inactive: 0.007	inactive: -0.036	inactive: -0.006	inactive: 0.072	inactive: 0.025	inactive: 0.03	inactive: 0.045	inactive: -0.019	inactive: -0.013	inactive: -0.003	inactive: -0.011	inactive: 0.038	inactive: -0.128

Reformatted bar-delimited: part of the list above.
Target | log2 fold change (bafetinib) | log2 fold change [1] | log2 fold change (nilotinib) | log2 fold change [2] | log2 fold change (dasatinib) | log2 fold change [3] | log2 fold change [4] | log2 fold change [5] | log2 fold change (tipifarnib) | log2 fold change (mubritinib) | log2 fold change [6] | log2 fold change [7] | log2 fold change [8] | log2 fold change [9] | log2 fold change (entinostat) | log2 fold change (vorinostat) | log2 fold change (citarinostat) | log2 fold change (silmitasertib) | log2 fold change [10] | log2 fold change [11]
PPIF (UniProt P30405) | inactive: -0.087 | inactive: 0.023 | inactive: -0.033 | inactive: 0.046 | inactive: -0.041 | inactive: -0.051 | inactive: 0.036 | inactive: 0.016 | inactive: 0.005 | inactive: 0.032 | inactive: -0.023 | inactive: -0.02 | inactive: 0.012 | inactive: -0.048 | inactive: -0.004 | inactive: 0.009 | inactive: 0.032 | inactive: -0.033 | inactive: -0.173 | inactive: -0.009
POLD2 (UniProt P49005) | inactive: -0.062 | inactive: 0.059 | inactive: -0.054 | inactive: 0.008 | inactive: -0.046 | inactive: -0.067 | inactive: 0.051 | inactive: -0.028 | inactive: -0.033 | inactive: 0.011 | inactive: 0.134 | inactive: -0.068 | inactive: -0.105 | inactive: -0.036 | inactive: 0.054 | inactive: -0.092 | inactive: 0.048 | inactive: 0.022 | inactive: -0.068 | inactive: 0.031
PLK1 (UniProt P53350) | inactive: -0.048 | inactive: 0.003 | inactive: -0.062 | active: -1.37 | inactive: -0.125 | inactive: 0.152 | inactive: 0.006 | inactive: -0.013 | inactive: 0.019 | inactive: 0.003 | active: -0.399 | inactive: 0.033 | inactive: -0.024 | inactive: 0.005 | inactive: -0.005 | inactive: 0.002 | inactive: 0.019 | inactive: -0.135 | inactive: 0.032 | inactive: -0.103
